Reference: PubChem BioAssay AID2685 (National Center for Advancing Translational Sciences (NCATS), 2010)
This is one part of the list. These are further read-outs of the screen, such as a control signal, another cell line or another target. No call is given for them. Most of these compounds were active or inconclusive in the main read-out, so they are no random draw. Words in brackets tell the shape of the fitted curve; partial curves, single points and poor fits give uncertain potencies.

Assay: qHTS Assay for Lipid Storage Modulators in Drosophila S3 Cells;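 on cell number change: cells counted by Cell Tracker Red CMTPX staining in the red channel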
Details: BODIPY lipid droplet fluorescence, 18-24 h; for cell number change: measured here: cell count max response, cells fed with added oleic acid
Procedure, shortened: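 Drosophila S3 cells loaded with oleic acid (400 uM, as added) and compounds at several concentrations; lipid droplets imaged by 488-nm laser-scanning cytometry, 500–530 nm intensity and object ratio to cell channel. Percent activity normalized to 20 uM Triacsin C.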

[1] = measured here: cell number channel AC50, cells fed with added oleic acid
[2] = measured here: lipid fluorescence (Fed channel) AC50, cells fed with added oleic acid

Row | Compound | cell number change | AC50 [1] | AC50 [2]
1 | COCCNC(=O)/C(C#N)=C1\N=C(N)c2ccccc21 | -33.3% | 1.84 µM [falling, partial curve] | 6.51 µM [rising, partial curve, poor fit]
2 | O=C(c1cc(COc2ccc(F)cc2Cl)on1)N1CC[C@@H]2CCCC[C@H]2C1 | -9.83% |  | 7.31 µM [falling, partial curve]
3 | COC(=O)c1ccc2c(=O)[nH]c(COC(=O)c3cccc(S(=O)(=O)N4CCOCC4)c3)nc2c1 | -14.3% | 0.461 µM [falling, full curve, poor fit] | 0.517 µM [falling, full curve]
4 | CCc1ccc(Nc2nnc(SCC(=O)Nc3cccc(S(=O)(=O)NC4=NCCCCC4)c3)s2)cc1 | -100% | 9.2 µM [falling, partial curve, poor fit] | 32.6 µM [falling, single point]
5 | CCc1nnc(NC(=O)CN2CCOCC2)s1 | -10.2% |  | 0.146 µM [falling, full curve, poor fit]
6 | CC(C)NC(=O)c1ccc(S(=O)(=O)N(C)C)cc1 | -48.7% |  | 
7 | CC(C)(CCl)C(=O)Nc1ccc(C(F)(F)F)cc1 | 3.26% | 2.59 µM [falling, partial curve] | 2.59 µM [falling, partial curve, poor fit]
8 | COc1ccc(S(=O)(=O)N2CCC(NC(=O)c3cccnc3)CC2)cc1 | -16.7% |  | 0.103 µM [falling, partial curve, poor fit]
9 | CC(C)C(=O)N1CCN(c2ccc(NC(=O)c3ccc([N+](=O)[O-])o3)cc2)CC1 | -32.5% | 16.4 µM [falling, single point] | 9.2 µM [falling, partial curve, poor fit]
10 | c1ccc2c(CCNc3ncnc4nc[nH]c34)cccc2c1 | -23.3% |  | 29.1 µM [falling, single point]
11 | Cc1ccc(-n2c(SCC(=O)c3c(N)n(C4CC4)c(=O)[nH]c3=O)nnc2N2CCOCC2)cc1 | -31.7% |  | 
12 | O=c1[nH]c(CN2CCN(c3ccccc3Cl)CC2)nc2ccsc12 | 36% | 29.1 µM [rising, single point] | 29.1 µM [rising, single point]
13 | Cn1nnc2cc(C(=O)NCc3ccc4c(c3)OCO4)ccc21 | 13.3% |  | 3.66 µM [rising, full curve]
14 | O=C(Nc1ccc(S(=O)(=O)N2CCOCC2)cc1)c1ccc([N+](=O)[O-])o1 | -43.8% |  | 29.1 µM [falling, partial curve, poor fit]
15 | Cc1ccccc1NC(=O)Cn1cccc1 | -33.7% |  | 14.6 µM [rising, single point]
16 | COc1ccc2nc(C)cc(Nc3cccc(C(=O)O)c3)c2c1 | 9.12% |  | 20.6 µM [rising, single point]
17 | Cc1cccc2sc(N(CCCN(C)C)C(=O)CCS(=O)(=O)c3ccccc3)nc12 | -10.1% |  | 0.461 µM [rising, partial curve]
18 | Cc1nc(N2CCN(Cc3ccc4c(c3)OCO4)CC2)[nH]c(=O)c1C | -20.8% |  | 29.1 µM [falling, single point]
19 | COc1ccc(-n2cc(C#N)c(=O)n(Cc3ccc(F)cc3)c2=O)cc1 | 17.2% |  | 

Row | Compound | cell number change | AC50 [1] | AC50 [2]
20 | CN(C)S(=O)(=O)c1ccc(N2CCCC2)c(C(=O)NNC(=O)c2ccccc2)c1 | 36.8% | 18.4 µM [rising, partial curve, poor fit] | 13 µM [rising, partial curve, poor fit]
21 | Cc1cc(C)n2nc(SCC(=O)N/N=C/c3cccc(Br)c3)nc2n1 | -18.9% |  | 0.651 µM [rising, full curve]
22 | Cc1noc(C)c1CCC(=O)Nc1c(C(C)C)cccc1C(C)C | -12.8% | 3.26 µM [falling, single point] | 2.31 µM [falling, single point]
23 | Cc1ccccc1-c1nn2c(-c3ccccc3)nnc2s1 | -29.5% |  | 0.461 µM [falling, full curve, poor fit]
24 | Cc1cccc(NC2=NC(C)(C)N=C(N)N2)c1C | 13.1% |  | 
25 | COc1ccc(C(=O)/C=C2/Sc3cc4c(cc3N2C)OCO4)cc1 | 19.3% |  | 18.4 µM [rising, single point]
26 | CCCc1cc(=O)[nH]c(Nc2ccc(N3CCCCC3)cc2)n1 | -43.3% |  | 
27 | CCC(OC(=O)c1cccs1)C(=O)NCc1ccc2c(c1)OCO2 (stereo unspecified) |  |  | 0.58 µM [rising, single point]
28 | C=C(C)C1CC=C(C)/C(=N/Nc2ccccc2[N+](=O)[O-])C1 (stereo unspecified) | -53.8% | 3.26 µM [falling, full curve] | 2.59 µM [falling, full curve]
29 | Cc1ccc(S(=O)(=O)/N=C(/Sc2ccccc2C(=O)O)c2ccccc2)cc1 | 36.6% | 2.91 µM [rising, full curve] | 20.6 µM [rising, partial curve]
30 | COCCCn1cnnc1SCc1nc2sc(C(C)=O)c(C)c2c(=O)[nH]1 | -6.49% |  | 0.731 µM [falling, full curve, poor fit]
31 | CC1=C/C(=N\OS(=O)(=O)c2ccccc2)C(C(C)C)=CC1=O | -91.2% | 2.06 µM [falling, full curve] | 4.61 µM [falling, full curve]
32 | CC(C)(C)c1nnc2sc(SC/C(O)=C(\C#N)c3nc4ccccc4[nH]3)nn2c1=O | -23.8% |  | 0.58 µM [rising, single point]
33 | CCOc1cc(/C=N/O)cc(Br)c1OCc1ccc(Cl)cc1 | -44.2% | 9.2 µM [falling, partial curve, poor fit] | 29.1 µM [falling, single point]
34 | COc1ccc(NC(=O)CSCC(=O)OCc2cccc(OC)c2OC)cc1 |  |  | 1.64 µM [rising, partial curve, poor fit]
35 | CCOC(=O)C1=C(CSc2nc3c(cc2C#N)CN(C)CC3)OC(N)=C(C#N)C1c1ccc(F)cc1 (stereo unspecified) | -0.161% |  | 
36 | CC1=NN(c2ccccc2C(=O)O)C(=O)C1N=Nc1ccccc1 (stereo unspecified) | -7.25% |  | 32.6 µM [falling, single point]
37 | O=C(Nc1nc(-c2ccc(Cl)cc2Cl)cs1)c1ccc(OCC2CCCO2)cc1 (stereo unspecified) | -5.41% |  | 0.164 µM [rising, full curve, poor fit]
38 | O=C(NCc1ccccc1)c1ccc2c(=O)[nH]c3c(C(=O)NCC4CCCO4)sc(=S)n3c2c1 (stereo unspecified) | 22.4% | 2.31 µM [rising, full curve, poor fit] | 3.26 µM [rising, single point]

Row | Compound | cell number change | AC50 [1] | AC50 [2]
39 | COc1ccc(C2(O)CC3CCC(C2)N3c2nc(C)cc(C)c2C#N)cc1 (stereo unspecified) |  |  | 0.58 µM [falling, single point]
40 | COc1ccc(CCNC(=O)c2ccc(=O)[nH]n2)cc1OC | 5.37% |  | 
41 | Cc1c(NC(=O)Nc2cccc([N+](=O)[O-])c2)c(=O)n(-c2ccccc2)n1C | 1.45% |  | 29.1 µM [rising, single point]
42 | Cc1cccc2nc3ccccc3nc12 | -3.52% |  | 20.6 µM [rising, single point]
43 | CCCCN(CCCC)CCNC(=O)CN1C(=O)CSc2ccc(S(=O)(=O)N3CCOCC3)cc21 | -16.5% |  | 0.00461 µM [falling, full curve, poor fit]
44 | CN(Cc1ccccc1)C(=O)CC(=O)N(C)Cc1ccccc1 | 9.4% |  | 4.61 µM [falling, full curve, poor fit]
45 | CCn1c(C(=O)N2CCc3ccccc3C2)cc2sccc21 | 42% | 11.6 µM [rising, partial curve, poor fit] | 
46 | C/C(N)=C(/C#N)C(=O)CSc1nnc(NC(C)C)s1 | 19.9% |  | 8.2 µM [rising, partial curve]
47 | Cc1ccccc1OCCCCn1c(CO)nc2ccccc21 | -33.3% | 23.1 µM [falling, single point] | 29.1 µM [falling, single point]
48 | Cc1cc(-c2ccccc2)[nH]c(=O)c1C#N | -28% |  | 
49 | Cc1cccc(NC(=O)CN2CCN(CC(=O)NCC3(N4CCCCC4)CCCCC3)CC2)c1C | -7.23% |  | 
50 | Cc1oc2cc(OCc3cnn(-c4ccccc4)c3)ccc2c(=O)c1Oc1ccccc1F | 11.7% |  | 1.03 µM [rising, single point]
51 | COC(=O)c1ccccc1C(=O)c1cccc2ccccc12 | -39.5% | 14.6 µM [falling, single point] | 
52 | CC(=O)Nc1ccc(C2=NN(c3ccccc3)C(c3ccccc3)C2)cc1 (stereo unspecified) | -18.8% |  | 7.31 µM [falling, partial curve, poor fit]
53 | CC1=C(C(=O)Nc2cc(C)ccc2C)C(c2cccs2)NC(=S)N1 (stereo unspecified) | -10.4% |  | 6.51 µM [rising, single point]
54 | COc1ccc(-c2c[n+]3c4n2CCCCC4=C(c2ccccc2)C3)cc1 | -36.2% | 25.9 µM [falling, single point] | 18.4 µM [falling, single point]
55 | CCn1c(SCC(N)=O)nc2cc(S(=O)(=O)N3CCOCC3)ccc21 |  |  | 0.00411 µM [rising, partial curve, poor fit]
56 | CC[C@@H](C)[C@H](CNC)NC[C@@H](Cc1cccc2ccccc12)NCCc1cccc(C(F)(F)F)c1 | -18.9% |  | 29.1 µM [falling, single point]
57 | O=C(CSc1nncc(=O)[nH]1)NCc1ccccc1 | 5.93% |  | 1.3 µM [rising, full curve, poor fit]

3 compounds from above, sorted by SMILES length, smallest number first:
Row | Compound | cell number change | AC50 [1] | AC50 [2]
51 | COC(=O)c1ccccc1C(=O)c1cccc2ccccc12 | -39.5% | 14.6 µM [falling, single point] | 
45 | CCn1c(C(=O)N2CCc3ccccc3C2)cc2sccc21 | 42% | 11.6 µM [rising, partial curve, poor fit] | 
39 | COc1ccc(C2(O)CC3CCC(C2)N3c2nc(C)cc(C)c2C#N)cc1 (stereo unspecified) |  |  | 0.58 µM [falling, single point]
